According to PubChem BioAssay AID1671190 (National Center for Advancing Translational Sciences (NCATS), 2021):
Screen size: about 580,000 compounds; about 6,100 (1.1%) were called active. Inconclusive results, whose numbers are uncertain, are shown with a selection of clear calls. The call rests on the fitted dose curve; in most records, active means well fitted inhibition curve with a large enough effect; inconclusive means small, poorly fitted or top-dose-only effect, or another doubt; inactive means no such curve, though single readings can be large or run the other way. Potencies of inconclusive entries are doubtful fits and often do not repeat.

By UniProt entry, the sequences of proteins in these tests, tags left out. Where a name states a change or a piece, a line headed by the entry shows the natural chain unless it says otherwise.
UniProt P18054: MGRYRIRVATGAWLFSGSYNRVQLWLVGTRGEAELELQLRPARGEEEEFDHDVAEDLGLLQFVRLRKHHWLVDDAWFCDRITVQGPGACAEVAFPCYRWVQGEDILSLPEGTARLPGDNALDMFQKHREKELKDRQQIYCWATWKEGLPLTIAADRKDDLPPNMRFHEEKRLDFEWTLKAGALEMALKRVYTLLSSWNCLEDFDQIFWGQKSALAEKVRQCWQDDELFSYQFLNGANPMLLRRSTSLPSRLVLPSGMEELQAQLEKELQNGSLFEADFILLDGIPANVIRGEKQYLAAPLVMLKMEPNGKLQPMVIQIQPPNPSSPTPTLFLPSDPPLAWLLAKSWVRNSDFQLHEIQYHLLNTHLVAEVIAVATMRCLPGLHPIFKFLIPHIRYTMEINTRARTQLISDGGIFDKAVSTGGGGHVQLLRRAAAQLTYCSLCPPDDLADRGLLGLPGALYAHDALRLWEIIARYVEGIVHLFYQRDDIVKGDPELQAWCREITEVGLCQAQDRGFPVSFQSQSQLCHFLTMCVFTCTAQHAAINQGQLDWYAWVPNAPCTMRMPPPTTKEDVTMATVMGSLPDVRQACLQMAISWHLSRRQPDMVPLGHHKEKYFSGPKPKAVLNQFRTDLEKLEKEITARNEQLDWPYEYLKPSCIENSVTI

What follows are compounds tested against Polyunsaturated fatty acid lipoxygenase ALOX12 (Homo sapiens) (UniProt P18054) (assay: Primary qHTS assay for inhibitors of human arachidonate 12S-lipoxygenase (ALOX12): Round 2). Conditions: purified 12hLO, xylenol orange hydroperoxide absorbance; activity change, negative = inhibition: at 108 µM (top of the series) unless noted.
How it was run: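 Purified human 12hLO at 150 nM in 25 mM Hepes, 0.01% Triton X-100, pH 7.0, preincubated 15 min at room temperature with compound. Reaction started with 40 uM arachidonic acid, 30 min at room temperature. Hydroperoxide measured by Fe-xylenol orange, 573/405 nm absorbance ratio.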
On the % scale 0 is the no-effect control and ±100 the full control effect; potency means the concentration at half of the fitted maximal effect.

Structure (SMILES) | Potency | activity change, negative = inhibition
O=C1Nc2ccccc2N=C(c2ccccc2)C1Br (stereo unspecified) | active: 39.8 µM | –
O=C(Nc1ccc(Cl)c(Cl)c1)N1CCSCC1 | inconclusive: 126 µM [inhibitor, partial curve, poor fit] | –
Cc1cc(=O)c(C(=O)Nc2cccc(C(=O)NC3CC3)c2)nn1-c1ccccc1Cl | – | inactive: -8.63%
COc1cccc(C(=O)N(C)Cc2c(C)nn(C3CCS(=O)(=O)C3)c2C)c1 (stereo unspecified) | inconclusive: 25.1 µM [inhibitor, partial curve, poor fit] | –
COC(=O)c1cccc(NC(=S)NCc2ccc(F)cc2)c1 | inconclusive: 56.2 µM [inhibitor, partial curve, poor fit] | –
CC(C)n1c(-c2ccccc2)nc(=S)c2c1CCCC2 | inconclusive: 10 µM [inhibitor, full curve] | –
Fc1ccc(-c2cnc(COc3ccc(Cl)cc3)o2)cc1 | active: 14.1 µM | –
CC1CCCC(C)N1S(=O)(=O)c1ccc(NC(=O)CNCC2CCCO2)cc1 (stereo unspecified) | inconclusive: 0.562 µM [inhibitor, full curve, poor fit] | –
Cc1nnc(NC(=O)c2cccc3c2ccn3C)s1 | – | inactive: -0.0465%
CCOC(=O)c1cc(NC(=O)c2ccccc2)c(=O)n2c1oc1ccc(Cl)cc12 | – | inactive: 4.49%
CSc1ccc(C2C(C#N)=C(N)Oc3cc4c(cc32)OCO4)cc1 (stereo unspecified) | inconclusive: 7.94 µM [inhibitor, full curve, poor fit] | –
CC(=O)N1CCC2(CC1)C/C(=N\NC(=S)Nc1ccccc1C)c1cc(O)ccc1O2 | inconclusive: 44.7 µM [inhibitor, partial curve, poor fit] | –
CCSC1=N/C(=C\c2ccc(OC)c(C)c2)C(=O)S1 | inconclusive: 17.8 µM [inhibitor, partial curve] | –
CCOc1ccccc1CNS(=O)(=O)c1ccc(-c2cnc(C3CC3)o2)cc1 | inactive | –
O=C(OCCN1CCCCC1)c1cccc(Cl)c1 | inconclusive: 79.4 µM [inhibitor, partial curve, poor fit] | –
Cc1ccc(-n2c(-c3ccccc3)cc(C=Nc3ccc(C)cc3C)c2-c2ccccc2)cc1 | inconclusive: 31.6 µM [inhibitor, single point] | –
COc1ccc(S(=O)(=O)c2cn(C)c3cc(N4CCCCCC4)c(F)cc3c2=O)cc1 | – | inactive: -6.45%
CCOC(=O)C=Cc1ccc(C(=O)OCC)[nH]1 | inconclusive: 31.6 µM [inhibitor, partial curve, poor fit] | –
COCC(=O)Nc1ccc([C@@H](O)[C@H]2COCC(=O)N2)cc1 | – | inactive: 48.7% [at 176 µM]
CCCC/C(=N\NC(C)=O)c1ccccc1 | – | inactive: 29.3%
CCOC(=O)c1c(NC(=O)Cn2nc(C(=O)O)c3ccccc3c2=O)sc(C)c1C | inconclusive: 39.8 µM [inhibitor, partial curve, poor fit] | –

Quoted at random: two entries already listed.
Structure (SMILES) | Potency | activity change, negative = inhibition
COc1cccc(C(=O)N(C)Cc2c(C)nn(C3CCS(=O)(=O)C3)c2C)c1 (stereo unspecified) | inconclusive: 25.1 µM [inhibitor, partial curve, poor fit] | –
CCSC1=N/C(=C\c2ccc(OC)c(C)c2)C(=O)S1 | inconclusive: 17.8 µM [inhibitor, partial curve] | –

Remaining list, next part.

Structure (SMILES) | Potency | activity change, negative = inhibition
Cc1ccc(-c2noc(C3CCCN(C(=O)c4ccc(C(C)(C)C)cc4)C3)n2)o1 (stereo unspecified) | inconclusive: 50.1 µM [inhibitor, partial curve, poor fit] | –
COCCNc1ccnc(-c2c(C)noc2C)n1 | inconclusive: 8.91 µM [inhibitor, partial curve, poor fit] | –
CN(Cc1ccccc1)C(=O)c1cccc2c1CCN2C(=O)Nc1ccccc1 | – | inactive: -2.25%
COc1ccc(C(=O)CSc2nnc(Nc3ccccc3OC)s2)c(OC)c1 | inconclusive: 31.6 µM [inhibitor, partial curve, poor fit] | –
FC(F)(F)c1cccc(CN2CCC(c3cc(-c4cccs4)n[nH]3)CC2)c1 | inconclusive: 44.7 µM [inhibitor, partial curve, poor fit] | –
Cc1cccc(-n2c(C)cc(/C=N/NC(N)=S)c2C)c1 | active: 44.7 µM | –
O=C(c1cccc([N+](=O)[O-])c1)N1CCN(S(=O)(=O)/C=C/c2ccccc2)CC1 | inconclusive: 79.4 µM [inhibitor, partial curve, poor fit] | –
COc1cc(/C=C(/C#N)c2nc3ccccc3o2)ccc1O | inconclusive: 50.1 µM [inhibitor, partial curve, poor fit] | –
O=C(CSc1nc2cc(Cl)ccc2o1)NCc1ccco1 | inconclusive: 12.6 µM [inhibitor, partial curve, poor fit] | –
COc1ccc(Cl)c2sc(NC(=O)c3ccc(S(=O)(=O)N4CCCC4)cc3)nc12 | inconclusive: 79.4 µM [inhibitor, partial curve, poor fit] | –
N#Cc1cc(-c2ccccc2)oc1/N=C/c1ccccc1O | inconclusive: 44.7 µM [inhibitor, partial curve, poor fit] | –
O=C(CSc1ncnc2nc[nH]c12)Nc1ccccc1C(F)(F)F | inconclusive: 8.91 µM [inhibitor, full curve] | –
O=C1Nc2ccccc2C(=O)C1(Cl)Cc1ccccc1 (stereo unspecified) | inconclusive: 7.08 µM [inhibitor, partial curve, poor fit] | –
COc1ccc(NC(=O)N(C)[C@H]2C[C@H]3c4[nH]c5ccc(-c6ccc(OC)cc6)cc5c4CCN3C(=O)[C@H]2[C@H](C)O)cc1 | inconclusive: 31.6 µM [inhibitor, partial curve] | –
COCC1CCCCN1C(=O)c1ccc2oc(CCCc3ccccc3)nc2c1 (stereo unspecified) | inconclusive: 70.8 µM [inhibitor, partial curve, poor fit] | –
CCOc1ccc(Oc2ccc(Cl)cc2NC(=O)Cn2c(=O)c3c(ncn3C)n(C)c2=O)cc1 | inconclusive: 39.8 µM [inhibitor, single point] | –
COc1ccccc1NC(=O)CSCc1cc(=O)c2cccc(Cl)c2[nH]1 | – | inconclusive: -38.7% [inhibitor]
C[C@H](CO)N1C[C@H](C)[C@@H](CN(C)C(=O)Nc2ccc3c(c2)OCO3)Oc2ccc(NC(=O)CCN3CCOCC3)cc2C1=O | inconclusive: 35.5 µM [inhibitor, partial curve, poor fit] | –
C=CCNC(=O)CN1CCN(Cc2ccc3c(c2)OCO3)CC1 | inconclusive: 6.31 µM [inhibitor, full curve, poor fit] | –
CS(=O)(=O)N1CCN(c2ccccc2NC(=S)NC(=O)c2ccco2)CC1 | inconclusive: 11.2 µM [inhibitor, partial curve] | –
